The target in test [1] is EphA2 (as in the co-immunoprecipitation with RhoG) (UniProt P29317). Nature of the test: co-IP; RhoG with EphA2, with or without HGF; bait and constructs not stated (Supplementary Fig. 4a).
Test [2] deals with EphA2-GFP (wild type) (UniProt P29317). Put plainly: co-IP; EphA2-GFPs immunoprecipitated with mouse anti-GFP on anti-mouse IgG Dynabeads; cells with or without HGF for 5 min; lysis in 200 mM NaCl, 75 mM Tris-HCl pH 7, 0.15% Tween-20; 2 h at 4 °C; importins by western blotting. On the technique in general: A western blot detects proteins with antibodies after separation by electrophoresis.

Amino acid sequences for entries named in this document (tags omitted). Residues count along the entry.
UniProt P29317, residues 24-976: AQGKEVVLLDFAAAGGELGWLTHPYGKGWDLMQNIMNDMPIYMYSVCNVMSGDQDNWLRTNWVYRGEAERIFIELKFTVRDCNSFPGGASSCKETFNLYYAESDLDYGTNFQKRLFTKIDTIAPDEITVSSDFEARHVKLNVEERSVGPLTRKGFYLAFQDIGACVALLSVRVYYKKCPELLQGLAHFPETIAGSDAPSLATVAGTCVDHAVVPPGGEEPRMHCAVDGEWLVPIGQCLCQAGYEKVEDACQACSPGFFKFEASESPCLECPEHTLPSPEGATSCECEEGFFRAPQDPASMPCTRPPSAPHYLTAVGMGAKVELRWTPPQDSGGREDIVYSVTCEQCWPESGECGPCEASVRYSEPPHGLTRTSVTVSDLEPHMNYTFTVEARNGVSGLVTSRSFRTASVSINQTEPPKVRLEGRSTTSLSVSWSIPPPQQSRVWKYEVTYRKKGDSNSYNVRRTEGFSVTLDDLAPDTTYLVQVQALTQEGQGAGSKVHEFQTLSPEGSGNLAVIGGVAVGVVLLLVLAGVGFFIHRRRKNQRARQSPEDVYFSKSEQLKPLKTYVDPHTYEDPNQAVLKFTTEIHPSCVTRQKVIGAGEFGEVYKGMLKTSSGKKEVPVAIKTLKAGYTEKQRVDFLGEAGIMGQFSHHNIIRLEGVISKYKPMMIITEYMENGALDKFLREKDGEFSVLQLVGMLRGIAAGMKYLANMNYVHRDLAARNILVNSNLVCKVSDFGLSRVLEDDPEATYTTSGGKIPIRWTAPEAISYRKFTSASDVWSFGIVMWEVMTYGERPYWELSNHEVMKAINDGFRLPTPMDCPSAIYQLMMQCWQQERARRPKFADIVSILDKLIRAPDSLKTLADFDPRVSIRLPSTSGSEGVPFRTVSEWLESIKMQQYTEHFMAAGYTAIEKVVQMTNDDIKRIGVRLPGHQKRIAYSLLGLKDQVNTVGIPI
UniProt P84095: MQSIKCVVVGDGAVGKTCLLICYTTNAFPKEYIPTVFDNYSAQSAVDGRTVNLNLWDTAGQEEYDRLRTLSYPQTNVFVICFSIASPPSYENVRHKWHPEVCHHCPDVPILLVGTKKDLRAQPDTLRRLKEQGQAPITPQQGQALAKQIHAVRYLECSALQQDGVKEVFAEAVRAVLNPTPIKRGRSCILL
UniProt Q14974: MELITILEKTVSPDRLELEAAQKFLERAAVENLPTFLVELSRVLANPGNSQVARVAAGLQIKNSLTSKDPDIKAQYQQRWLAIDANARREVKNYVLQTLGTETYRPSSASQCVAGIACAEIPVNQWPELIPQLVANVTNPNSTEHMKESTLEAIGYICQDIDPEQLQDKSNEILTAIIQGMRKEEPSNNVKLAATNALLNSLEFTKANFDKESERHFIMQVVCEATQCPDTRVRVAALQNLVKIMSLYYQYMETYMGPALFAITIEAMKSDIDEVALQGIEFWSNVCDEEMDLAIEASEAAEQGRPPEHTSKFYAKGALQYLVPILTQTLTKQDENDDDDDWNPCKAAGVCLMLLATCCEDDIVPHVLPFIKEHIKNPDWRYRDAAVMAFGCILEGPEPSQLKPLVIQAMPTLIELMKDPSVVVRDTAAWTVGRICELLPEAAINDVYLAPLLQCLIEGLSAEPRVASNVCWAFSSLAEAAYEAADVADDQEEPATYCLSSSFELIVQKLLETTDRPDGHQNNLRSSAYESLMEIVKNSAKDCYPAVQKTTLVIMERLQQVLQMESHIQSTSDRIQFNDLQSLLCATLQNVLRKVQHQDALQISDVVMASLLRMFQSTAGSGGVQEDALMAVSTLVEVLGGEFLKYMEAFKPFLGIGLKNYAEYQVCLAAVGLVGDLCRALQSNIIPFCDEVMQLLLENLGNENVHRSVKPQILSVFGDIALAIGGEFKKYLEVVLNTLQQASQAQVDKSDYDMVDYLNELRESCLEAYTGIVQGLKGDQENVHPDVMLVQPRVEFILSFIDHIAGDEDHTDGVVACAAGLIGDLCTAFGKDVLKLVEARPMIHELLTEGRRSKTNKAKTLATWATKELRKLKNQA
UniProt P52294: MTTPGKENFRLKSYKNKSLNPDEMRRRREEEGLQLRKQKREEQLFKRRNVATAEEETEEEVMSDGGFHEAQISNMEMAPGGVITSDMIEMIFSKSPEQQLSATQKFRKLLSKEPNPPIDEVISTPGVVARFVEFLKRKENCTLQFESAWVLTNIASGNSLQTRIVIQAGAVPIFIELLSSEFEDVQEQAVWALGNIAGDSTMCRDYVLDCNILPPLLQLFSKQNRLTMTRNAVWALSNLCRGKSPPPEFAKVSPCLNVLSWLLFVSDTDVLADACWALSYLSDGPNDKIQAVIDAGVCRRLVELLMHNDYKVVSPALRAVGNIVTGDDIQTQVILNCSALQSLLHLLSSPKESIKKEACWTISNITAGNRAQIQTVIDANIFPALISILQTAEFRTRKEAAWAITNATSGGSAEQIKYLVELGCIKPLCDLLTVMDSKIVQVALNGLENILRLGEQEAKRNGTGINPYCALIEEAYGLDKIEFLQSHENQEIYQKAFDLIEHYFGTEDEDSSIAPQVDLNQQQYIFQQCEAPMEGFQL

These are yes or no findings as the source states them, for the method shown. Binding seen in cells or lysates may run through a third protein. Some entries that bind do so weakly or less than the wild type.

Consider RhoG (from UniProt P84095 1-191), for which the binding entry in test [1] is “binds”. On to importin-β1 (from UniProt Q14974 1-876), for which the binding entry in test [2] is recorded as “binds”. On to importin-α5 (from UniProt P52294 1-538), for which the binding entry in test [2] is listed as “binds”. With importin-α7 (from UniProt O60684 1-536), in test [2], the binding result was “binds”.

B1: transportin-3 (protein, UniProt Q9Y5L0 1-923)
chain: MEGAKPTLQLVYQAVQALYHDPDPSGKERASFWLGELQRSVHAWEISDQLLQIRQDVESCYFAAQTMKMKIQTSFYELPTDSHASLRDSLLTHIQNLKDLSPVIVTQLALAIADLALQMPSWKGCVQTLVEKYSNDVTSLPFLLEILTVLPEEVHSRSLRIGANRRTEIIEDLAFYSSTVVSLLMTCVEKAGTDEKMLMKVFRCLGSWFNLGVLDSNFMANNKLLALLFEVLQQDKTSSNLHEAASDCVCSALYAIENVETNLPLAMQLFQGVLTLETAYHMAVAREDLDKVLNYCRIFTELCETFLEKIVCTPGQGLGDLRTLELLLICAGHPQYEVVEISFNFWYRLGEHLYKTNDEVIHGIFKAYIQRLLHALARHCQLEPDHEGVPEETDDFGEFRMRVSDLVKDLIFLIGSMECFAQLYSTLKEGNPPWEVTEAVLFIMAAIAKSVDPENNPTLVEVLEGVVRLPETVHTAVRYTSIELVGEMSEVVDRNPQFLDPVLGYLMKGLCEKPLASAAAKAIHNICSVCRDHMAQHFNGLLEIARSLDSFLLSPEAAVGLLKGTALVLARLPLDKITECLSELCSVQVMALKKLLSQEPSNGISSDPTVFLDRLAVIFRHTNPIVENGQTHPCQKVIQEIWPVLSETLNKHRADNRIVERCCRCLRFAVRCVGKGSAALLQPLVTQMVNVYHVHQHSCFLYLGSILVDEYGMEEGCRQGLLDMLQALCIPTFQLLEQQNGLQNHPDTVDDLFRLATRFIQRSPVTLLRSQVVIPILQWAIASTTLDHRDANCSVMRFLRDLIHTGVANDHEEDFELRKELIGQVMNQLGQQLVSQLLHTCCFCLPPYTLPDVAEVLWEIMQVDRPTFCRWLENSLKGLPKETTVGAVTVTHKQLTDFHKQVTSAEECKQVCWALRDFTRLFR
Turning to B1, in test [2], the binding entry is listed as “binds”.

The record behind these values is paper PMC8613289.
